# Test results taken from the supplement of paper PMC10338343.
# ± gives the standard deviation. The list shows a part of the results, in another mix than the full data. Many of these values have a large error. The list shows a part of the results.
# Legend:
# [1] = system: MILI (PIWIL2) piRISC loaded with L1MC piRNA (26 nt); assay: pre-steady-state target cleavage rate (min^-1); higher = faster piRNA-guided slicing of the target; conditions: guide: L1MC piRNA 5'p-UAACUAAAUACUAUGCAAGCUGUAGG
# Procedure, shortened: (§1)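 The pre-steady-state cleavage rate was obtained by Cleave-'n-Seq with a burst-and-steady-state fit. A transcribed, DNA-blocked target RNA library (0.1 nM) was mixed with 1 nM active affinity-purified piRISC carrying one synthetic guide, with or without 500 nM GTSF1 partner protein, in HEPES–potassium acetate buffer at 33 °C for 0–8 or 0–960 min. Uncleaved targets were sequenced and normalised to depth and to weakly complementary targets, with three trials pooled and k3 capped at 0.0001 min^-1.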
# [2] = system: MIWI (PIWIL1) piRISC loaded with L1MC piRNA (30 nt); assay: as above; conditions: guide: L1MC piRNA 5'p-UAACUAAAUACUAUGCAAGCUGUAGGUCCU
# Procedure, shortened: as §1
# [3] = system: EfPiwi piRISC loaded with L1MC piRNA (26 nt); assay: pre-steady-state target cleavage rate (min^-1); guide: L1MC piRNA 5'p-UAACUAAAUACUAUGCAAGCUGUAGG; MIWI and MILI are mouse PIWI proteins and EfPiwi is from a freshwater sponge; tags in brackets are library labels; higher = faster piRNA-guided slicing of the target
# Procedure, shortened: as §1
# [4] = auxiliary factor: none (no GTSF1)
# [5] = auxiliary factor: 500 nM Ephydatia muelleri Gtsf1
# [6] = auxiliary factor: 500 nM mouse GTSF1
# [7] = auxiliary factor: none (no Gtsf1)
Sequence,"pre-steady-state target cleavage rate [1, 4]","pre-steady-state target cleavage rate [2, 4]","pre-steady-state target cleavage rate [3, 5]","pre-steady-state target cleavage rate [1, 6]","pre-steady-state target cleavage rate [2, 6]","pre-steady-state target cleavage rate [3, 7]"
UCCUGGAUGUCGAACCAAAGUAUUAAGUUA,0.000184 ± 0.033,0.000543 ± 0.012,0.000103 ± 0.03,,,
UCCUGGUACAGCUUGCAUACUAUUUAGAAA,0.00137 ± 0.0064,0.0029 ± 0.0031,0.00236 ± 0.0018,,,
UCCUGGAUGUCGAAGCAUAGCUAUUUAGUUA,0.000271 ± 0.016,0.000815 ± 0.0069,0.000175 ± 0.018,,,
UCCUGGAACAGCAAGCAUAGUAUUUACAAA,0.000906 ± 0.0075,0.000988 ± 0.009,0.00166 ± 0.0046,,,
UCCUGGAUGUCGUUGCAUACUAUUUACUUA,0.000219 ± 0.027,0.000291 ± 0.022,0.000391 ± 0.018,,,
UCCUGGAACAGCAUGCAUAGUAUUUACAAA,0.00114 ± 0.0058,0.00143 ± 0.0043,0.00222 ± 0.0025,,,
UCCUGGAUCAGCUUGCAUUCAUAAAUCAAA [g13:g22:cont:t1A],0.000241 ± 0.025,0.00059 ± 0.013,0.000738 ± 0.0075,,,
UCCUGCUACAGCUUGGAUAGUAUUUAGAAA,0.000931 ± 0.0069,0.00274 ± 0.0041,0.00242 ± 0.0021,,,
UCCUGGAUGUCGAUGCAUAGUAUUAUCUUA,0.000706 ± 0.0072,0.000593 ± 0.0088,0.000476 ± 0.011,,,
UCCUGGAUGUCCUUGCAUAGUAUAAUGUAA,0.000595 ± 0.011,0.000565 ± 0.018,0.000222 ± 0.015,,,
UCCUGGAUGAGCUUGCAUAGUAUUUUCAUA,0.000636 ± 0.01,0.00304 ± 0.0036,0.00308 ± 0.0031,,,
UCCUGGAACAGCUUGCAUAGUAAAUACAAA,0.000804 ± 0.0078,0.0014 ± 0.0064,0.000741 ± 0.0069,,,
UCCUCCUACAGCUUGCACUAGUAUUUAGUUA,0.00175 ± 0.0037,0.00103 ± 0.0062,0.0137 ± 0.0056,,,
UCCUGGUACAGCUUGCAUAGAUAUUAGUUA,0.00312 ± 0.0032,0.00176 ± 0.0038,0.000649 ± 0.0068,,,
UCCUGGAUGUCGAAGCUUUGUAUUUAGUUA,0.000336 ± 0.013,0.000404 ± 0.013,0.00104 ± 0.0064,,,
UCCUGGAUCAGCUUGCAUAGCUAUUUAGUUA,0.00121 ± 0.0057,0.00185 ± 0.0049,0.000647 ± 0.0041,,,
UCCUGGAUGUCCUUGCUUAGUAUUUAGUAA,0.00199 ± 0.0031,0.0016 ± 0.0032,0.000422 ± 0.0085,,,
UCCUGGUACAGCUUCCAUAGUAUAUAGUUA,0.000747 ± 0.01,0.00101 ± 0.0063,0.000996 ± 0.004,,,
UCCUGGAUGUCGAACCAUAGUCUUUAGUUA,,,< 0.0001,0.000427 ± 0.0095,0.000398 ± 0.01,
UCCUGGUACAGCUUCCAUAGUAUUUAGUUA,0.00214 ± 0.0047,0.00235 ± 0.0026,0.00258 ± 0.0017,,,
UCCUGGAUGUCGAACCAAAGUUUUUAGUUA,0.000169 ± 0.012,0.000308 ± 0.016,,,,0.000305 ± 0.017
UCCUGGAUGUCCUUGCAUAGUUAAUAGUAA,0.00103 ± 0.0048,0.00107 ± 0.005,,,,0.000354 ± 0.024
UCCUGGUACAGCUUGCUAUCAUAAAUCAAA [g15:g24:cont:t1A],0.000325 ± 0.019,0.000581 ± 0.013,0.000384 ± 0.0075,,,
UCCUGGAACUCGUUGCAUAGUAUUUAGAAA,0.00198 ± 0.0027,0.00157 ± 0.0041,0.00502 ± 0.004,,,
UCCUGGAUGUCGAUUCAUAGUAUUUAGUUA,0.00118 ± 0.0058,0.000471 ± 0.017,0.000464 ± 0.0065,,,
UCCUGGAACAGCUUCCAUAGUAUUUUGUUA,0.000111 ± 0.021,0.000729 ± 0.0078,0.000855 ± 0.0055,,,

# Exported with bars between the fields: entries from further up
Sequence | pre-steady-state target cleavage rate [1, 4] | pre-steady-state target cleavage rate [2, 4] | pre-steady-state target cleavage rate [3, 5] | pre-steady-state target cleavage rate [1, 6] | pre-steady-state target cleavage rate [2, 6] | pre-steady-state target cleavage rate [3, 7]
UCCUGGAUGAGCUUGCAUAGUAUUUUCAUA | 0.000636 ± 0.01 | 0.00304 ± 0.0036 | 0.00308 ± 0.0031 |  |  | 
UCCUCCUACAGCUUGCACUAGUAUUUAGUUA | 0.00175 ± 0.0037 | 0.00103 ± 0.0062 | 0.0137 ± 0.0056 |  |  | 
UCCUGGAUGUCCUUGCUUAGUAUUUAGUAA | 0.00199 ± 0.0031 | 0.0016 ± 0.0032 | 0.000422 ± 0.0085 |  |  | 

# Going on with the list:

Sequence,"pre-steady-state target cleavage rate [1, 4]","pre-steady-state target cleavage rate [2, 4]","pre-steady-state target cleavage rate [3, 5]","pre-steady-state target cleavage rate [1, 6]","pre-steady-state target cleavage rate [2, 6]","pre-steady-state target cleavage rate [3, 7]"
UCCUGCUACAGCUUGCAUAGUAUUUUCAAA,0.0014 ± 0.0048,0.00186 ± 0.0047,,,,0.000382 ± 0.015
UCCUGGAUGUCGAACGAUAUAUUUAGUUA,,,,0.000204 ± 0.022,0.000125 ± 0.043,< 0.0001
UCCUGGAUGUCGAACGUAUCUAUUUAUGUUA,,,,0.00032 ± 0.025,0.000253 ± 0.033,0.000228 ± 0.032
UCCUGGAUGUCCUUGGUAAGUAUUUAGUUA,0.00115 ± 0.0057,0.000892 ± 0.0094,0.000287 ± 0.012,,,
UCCUGGUACAGCUACGAUAGUAUUUAGAAA,0.000687 ± 0.0086,0.000888 ± 0.0087,0.000319 ± 0.011,,,
UCCUGGAUGUCGAAGCUUAGUAUUUAGAUA,0.000271 ± 0.014,0.000488 ± 0.011,0.000166 ± 0.018,,,
UCCUGGAUGAGCUUCCAUAGUAUUUACUUA,0.000382 ± 0.017,0.000864 ± 0.0087,0.00113 ± 0.0052,,,
UCCUCCUACACGUUGCAUAGUAUUUACAAA,0.00122 ± 0.0045,0.00124 ± 0.0037,0.00297 ± 0.0045,,,
UCCUGGUAGUCCUUGCAUAGUAUUUAGAAA,0.00147 ± 0.0038,0.00179 ± 0.0027,0.00198 ± 0.0029,,,
UCCUGGAUGUCCUUGCUAUAGUAUUUAGUUA,0.000735 ± 0.0057,0.00111 ± 0.0057,0.000517 ± 0.0068,,,
UCCUGGAUGUCGAUGCAUAGUAUUUAUUUA,0.000945 ± 0.0063,,0.000255 ± 0.03,,0.0013 ± 0.0083,
UCCUGGAUGUCGUUGCAUAGUAUUUACUAA,0.00052 ± 0.0092,0.000589 ± 0.0096,0.000329 ± 0.011,,,
UCCUCCUACAGCUUGCAUACAAUUUUCAAA,0.000677 ± 0.0077,0.000297 ± 0.012,0.000327 ± 0.0098,,,
UCCUGCUACAGCUUCCAUACUAUUUAGUUA,0.000495 ± 0.0086,0.000933 ± 0.0067,0.00206 ± 0.0022,,,
UCCUGGAUCAGCUUGCUAUAGUAUUUAGUUA,0.000525 ± 0.012,0.0013 ± 0.0035,0.00528 ± 0.0019,,,
UCCUGGAUGAGCUUCCAUAGUAUUUUGUUA,0.000948 ± 0.0068,0.000933 ± 0.0072,0.000371 ± 0.015,,,
UCCUGGAUGUCCUUGCAUAGUAUAAUCAAA [g8:g19:cont:t1A],0.000683 ± 0.0068,0.00042 ± 0.012,,,,0.000475 ± 0.013
UCCUCCUACAGGUUGCAUAGUAUUUUCAAA,0.00107 ± 0.0043,0.000983 ± 0.0048,0.00306 ± 0.0021,,,
UCCUGGAUGUCGAUGUCAUAGUAUUUAGUUA,0.000835 ± 0.0067,0.00104 ± 0.0068,,,,0.00044 ± 0.018
UCCUGGAACAGCUUGCAUUCAAUUUUCAAA,0.000956 ± 0.0049,0.000817 ± 0.0074,0.000794 ± 0.0051,,,
UCCUGGAUGUCCUUGCAUGAGUAUUUAGUUA,0.00137 ± 0.0068,0.000724 ± 0.0087,0.000446 ± 0.008,,,
UCCUCGAUCAGCUUGCAUAGUAUUUAGUUA,,,0.121 ± 0.023,0.316 ± 0.017,1.58 ± 0.056,
UCCUGGUACAGCUUGCAUAGAUUUUAGAAA,0.00155 ± 0.0045,0.00136 ± 0.0046,0.00169 ± 0.0037,,,
UCCUGGAACAGCUUGGAUAGUAUUUUCAAA,0.000511 ± 0.011,0.00128 ± 0.0044,0.00097 ± 0.0046,,,
UCCUCCUACAGCUUGCAUAGUUAAAUCAAA [g10:g26:cont:t1A],0.000702 ± 0.0072,0.000734 ± 0.0091,0.00137 ± 0.0047,,,
